Earlier results in patent publication US20090312358A1, “METHOD FOR MANAGEMENT OF DIARRHEA” (TRUSTEES OF BOSTON UNIVERSITY, priority 2006, published 2009).
Some entries share one result that the patent states for a list of compounds.

Details: after oral administration

COc1ccc2c3c1O[C@H]1[C@@H](O)C=C[C@H]4[C@@H](C2)N(C)CC[C@@]341 [codeine]
time to peak plasma concentration: 30 to 90 min
